Publication PMC3745420
No constants are given. Whether binding was seen depends on the method and setting. For some assays here: In cells and extracts the contact can be indirect. Some binding calls cover weakened binding; strength is not graded here. One block for each substance: values may come before it.

Sequences of proteins named here, by UniProt entry; tags and fusion partners are left off. A change or cut given only in a name is not applied to a line headed by its entry. Residues count along the entry.
UniProt O60563: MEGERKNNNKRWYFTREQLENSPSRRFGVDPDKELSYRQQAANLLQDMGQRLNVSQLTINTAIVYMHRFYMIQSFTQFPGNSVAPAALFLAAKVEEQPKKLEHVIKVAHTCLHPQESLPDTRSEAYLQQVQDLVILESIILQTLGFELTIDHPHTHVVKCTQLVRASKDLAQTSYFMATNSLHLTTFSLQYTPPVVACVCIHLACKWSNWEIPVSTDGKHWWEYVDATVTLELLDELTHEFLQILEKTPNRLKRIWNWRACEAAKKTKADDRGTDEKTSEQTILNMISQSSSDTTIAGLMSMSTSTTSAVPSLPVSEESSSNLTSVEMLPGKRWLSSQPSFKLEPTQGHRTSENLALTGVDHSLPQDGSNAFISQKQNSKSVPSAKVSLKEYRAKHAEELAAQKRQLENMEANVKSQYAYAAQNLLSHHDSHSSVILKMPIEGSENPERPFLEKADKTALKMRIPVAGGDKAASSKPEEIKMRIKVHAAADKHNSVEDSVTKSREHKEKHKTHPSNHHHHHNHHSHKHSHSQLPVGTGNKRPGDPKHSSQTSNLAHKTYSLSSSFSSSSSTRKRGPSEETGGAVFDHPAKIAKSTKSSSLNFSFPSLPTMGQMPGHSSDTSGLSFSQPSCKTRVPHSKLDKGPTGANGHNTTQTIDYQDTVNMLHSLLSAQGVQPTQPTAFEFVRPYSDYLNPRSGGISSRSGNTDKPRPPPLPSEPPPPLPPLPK
GST-cyclin T1 (481-630): residues 481-630 of O60563
UniProt P50750: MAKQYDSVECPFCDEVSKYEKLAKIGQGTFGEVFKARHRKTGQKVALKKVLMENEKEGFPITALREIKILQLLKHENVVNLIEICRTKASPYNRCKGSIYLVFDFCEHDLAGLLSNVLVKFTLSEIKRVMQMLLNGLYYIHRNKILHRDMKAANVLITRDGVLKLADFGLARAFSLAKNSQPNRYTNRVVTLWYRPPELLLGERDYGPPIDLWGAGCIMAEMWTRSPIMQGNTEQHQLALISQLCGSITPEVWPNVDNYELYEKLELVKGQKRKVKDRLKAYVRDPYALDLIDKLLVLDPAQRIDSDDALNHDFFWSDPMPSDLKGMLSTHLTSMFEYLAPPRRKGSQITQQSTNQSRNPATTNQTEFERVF

Experiments:
[1] = target: myc-Plk1 (polo-like kinase 1) (UniProt P53350); assay: co-IP; 293T cells co-transfected with pCMV myc-Plk1 and pCMV FLAG-Cdk7 or FLAG-Cdk9; total cell extracts immunoprecipitated with myc antibody, immunoblotted with FLAG antibody; lysis buffer 50 mM TrisCl pH 8.0, 150 mM NaCl, 0.5% Triton X-100, 4 °C
[2] = target: GST-Plk1 polo-box domain (PBD) (330-603) (UniProt P53350); assay: pull-down; GST pull-down; 293T cell lysate incubated with immobilized GST-Plk1 PBD or GST-Plk1 PBD H538A/K540A, 4 °C, 1 h; immunoblotting with Cdk9 and cyclin T1 antibodies; only the target purified
[3] = target: GST-Plk1 PBD H538A/K540A (UniProt P53350); assay: as above
[4] = target: FLAG-Plk1 (polo-like kinase 1) (UniProt P53350); assay: co-IP; 293T cells transfected with pCMV FLAG-Plk1, its KD (K82R) or deletion mutants; extracts immunoprecipitated with FLAG antibody beads, immunoblotted with Cdk9 and cyclin T1 antibodies (endogenous); lysis buffer 50 mM TrisCl pH 8.0, 150 mM NaCl, 0.5% Triton X-100, 4 °C
[5] = target: FLAG-Plk1(1-330) (UniProt P53350); assay: as above
[6] = target: FLAG-Plk1(330-603) (UniProt P53350); assay: as above
[7] = target: FLAG-Plk1 KD (K82R), kinase-defective mutant (UniProt P53350); assay: as above
[8] = target: endogenous Plk1 (HeLa) (human (endogenous in HeLa)) (UniProt P53350); assay: co-IP; endogenous proteins; HeLa cells synchronized in M phase by Nocodazole; lysates immunoprecipitated with Plk1 antibody (normal mouse serum as control), immunoblotted with Cdk9, cyclin T1 and Plk1 antibodies
[9] = target: GST-cyclin T1 (human) (UniProt O60563); assay: pull-down; GST pull-down; purified His-Plk1 incubated with GST-tagged protein immobilized on Sepharose 4B-glutathione beads, 4 °C, 1 h, washed with lysis buffer; bound protein detected with Plk1 antibody; both purified
[10] = target: GST-Cdk9 (human) (UniProt P50750); assay: as above
[11] = target: GST-cyclin T1 (481-630) (human) (UniProt O60563); assay: as above

binding [1]: binds
Substance: FLAG-Cdk9 (from UniProt P50750 1-372) (enzyme)

binding [2]: binds | binding [3]: binds | binding [4]: binds | binding [5]: binds weakly | binding [6]: binds | binding [7]: binds
Substance: endogenous Cdk9 (293T) (from UniProt P50750 1-372) (enzyme)

binding [8]: binds
Substance: endogenous Cdk9 (HeLa) (from UniProt P50750 1-372) (enzyme)

binding [9]: binds | binding [10]: binds | binding [11]: binds
Substance: His-tagged Plk1 (from UniProt P53350 1-603) (enzyme)
